Consider one compound from ChEMBL document CHEMBL1671695, “Specificity of induction of the vanA and vanB operons in vancomycin-resistant enterococci by telavancin” (Antimicrob Agents Chemother, 2010).

The experiment concerns Enterococcus faecium. The experiment is described as follows: Antimicrobial activity against Enterococcus faecium ATCC 51559 by broth microdilution method. Format: functional. In outline:
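Broth microdilution MIC per CLSI-approved methods; strains maintained on tryptic soy agar with 5% sheep blood at 37°C.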
In general terms: Broth dilution looks for growth in wells or tubes with falling amounts of substance.

≈ marks a conversion by molar mass, not a printed value.

For orientation: MIC means the lowest concentration found to suppress growth.

`CN[C@H](CC(C)C)C(=O)N[C@H]1C(=O)N[C@@H](CC(N)=O)C(=O)N[C@H]2C(=O)N[C@H]3C(=O)N[C@H](C(=O)N[C@H](C(=O)O)c4cc(O)cc(O)c4-c4cc3ccc4O)[C@H](O)c3ccc(c(Cl)c3)Oc3cc2cc(c3O[C@@H]2O[C@H](CO)[C@@H](O)[C@H](O)[C@H]2O[C@H]2C[C@](C)(N)[C@H](O)[C@H](C)O2)Oc2ccc(cc2Cl)[C@H]1O` [VANCOMYCIN]: the MIC was found to be 1020 µg/mL (≈ 707 µM).
